The source of these data is article PMC3657149, “Mig6 Is a Sensor of EGF Receptor Inactivation that Directly Activates c-Abl to Induce Apoptosis during Epithelial Homeostasis” (Developmental Cell, 2012).

Amino acid sequences for entries named in this document (tags omitted).
UniProt P00520: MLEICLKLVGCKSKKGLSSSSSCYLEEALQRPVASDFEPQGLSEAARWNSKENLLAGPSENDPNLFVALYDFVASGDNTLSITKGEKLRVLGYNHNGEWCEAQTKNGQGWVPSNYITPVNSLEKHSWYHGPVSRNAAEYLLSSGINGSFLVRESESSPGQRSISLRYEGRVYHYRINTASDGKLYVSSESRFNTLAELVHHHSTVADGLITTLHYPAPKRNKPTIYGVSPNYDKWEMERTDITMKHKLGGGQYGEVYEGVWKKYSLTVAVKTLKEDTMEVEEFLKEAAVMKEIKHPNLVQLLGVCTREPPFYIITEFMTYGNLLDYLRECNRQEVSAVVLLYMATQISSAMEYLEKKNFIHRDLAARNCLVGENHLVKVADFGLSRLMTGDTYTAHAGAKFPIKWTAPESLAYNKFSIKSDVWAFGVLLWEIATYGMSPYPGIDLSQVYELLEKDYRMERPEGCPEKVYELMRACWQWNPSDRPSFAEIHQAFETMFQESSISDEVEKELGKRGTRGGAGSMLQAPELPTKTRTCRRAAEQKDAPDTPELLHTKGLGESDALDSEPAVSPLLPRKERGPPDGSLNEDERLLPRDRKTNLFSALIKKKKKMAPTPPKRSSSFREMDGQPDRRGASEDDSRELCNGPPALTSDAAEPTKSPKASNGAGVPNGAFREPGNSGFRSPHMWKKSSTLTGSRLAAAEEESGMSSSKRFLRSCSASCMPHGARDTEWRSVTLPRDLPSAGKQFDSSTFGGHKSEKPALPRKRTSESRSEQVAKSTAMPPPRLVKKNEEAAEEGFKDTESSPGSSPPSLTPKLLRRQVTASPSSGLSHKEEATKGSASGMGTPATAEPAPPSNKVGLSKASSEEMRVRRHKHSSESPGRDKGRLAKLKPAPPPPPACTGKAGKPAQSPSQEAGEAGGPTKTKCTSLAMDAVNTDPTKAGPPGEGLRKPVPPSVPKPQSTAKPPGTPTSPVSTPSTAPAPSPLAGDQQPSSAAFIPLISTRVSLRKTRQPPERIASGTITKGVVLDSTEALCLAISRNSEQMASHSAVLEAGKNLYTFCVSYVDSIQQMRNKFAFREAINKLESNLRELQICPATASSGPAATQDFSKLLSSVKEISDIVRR

No constants are given. Whether binding was seen depends on the method and setting. In cells and extracts the contact can be indirect. Some results given as binding are weak or reduced against the parent protein; the word gives no strength.

Assay [1] deals with T1, Mig6, endogenous in primary mammary epithelial cells (mouse (endogenous in pMECs)) (UniProt Q99JZ7).
T1 sequence: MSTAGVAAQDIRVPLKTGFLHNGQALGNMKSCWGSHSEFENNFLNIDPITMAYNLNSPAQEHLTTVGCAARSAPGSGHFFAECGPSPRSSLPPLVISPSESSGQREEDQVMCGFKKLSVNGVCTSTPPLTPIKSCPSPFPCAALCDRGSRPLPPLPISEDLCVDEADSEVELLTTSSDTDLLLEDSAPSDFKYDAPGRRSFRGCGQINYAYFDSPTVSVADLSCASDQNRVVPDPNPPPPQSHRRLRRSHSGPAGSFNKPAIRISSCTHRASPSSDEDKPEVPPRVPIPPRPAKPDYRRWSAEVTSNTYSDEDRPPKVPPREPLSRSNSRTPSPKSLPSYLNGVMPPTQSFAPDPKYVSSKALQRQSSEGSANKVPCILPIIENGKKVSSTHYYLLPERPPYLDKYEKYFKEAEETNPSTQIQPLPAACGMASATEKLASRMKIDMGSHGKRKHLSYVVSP
Nature of the assay: co-IP; endogenous Mig6 immunopurified from pMECs cultured in the presence or absence of EGF for 2 hr (with or without nilotinib); immunoblotting for c-Abl or EGFR. Background: A western blot detects proteins with antibodies after separation by electrophoresis.

Assay [2] concerns the target T1, Mig6, endogenous in primary mammary epithelial cells (mouse (endogenous in pMECs)). Nature of the assay: condition: only pMECs cultured in the absence of EGF for 2 hr; co-IP; endogenous Mig6 immunopurified from pMECs cultured in the absence of EGF for 2 hr; immunoblotting for EGFR.

In the case of “c-Abl, endogenous in primary mammary epithelial cells (from UniProt P00520 1-1123) (enzyme)”, the binding entry in assay [1] is listed as “binds”.

Regarding “EGFR, endogenous in primary mammary epithelial cells (from UniProt Q01279 25-1210) (receptor)”, the binding entry in assay [2] is on record as “no binding”; in assay [1], “binds”.
